Results are given in words; binding and its absence hold for the method and conditions named. Binding seen in cells or lysates may run through a third protein. Some binding calls cover weakened binding; strength is not graded here.
Molecular target: TRIM28 (human (endogenous in ARP1, RPMI 8226, U266)) (UniProt Q13263)
Assay: co-IP; endogenous proteins; 2 x 10^7 ARP1, RPMI 8226 and U266 cells lysed in NP-40 lysis buffer with protease inhibitors; overnight at 4 °C with anti-TRIM28 or anti-14-3-3ζ, protein A/G beads, western blot

The chains behind the UniProt entries cited, without tags or fusion partners.
UniProt Q13263: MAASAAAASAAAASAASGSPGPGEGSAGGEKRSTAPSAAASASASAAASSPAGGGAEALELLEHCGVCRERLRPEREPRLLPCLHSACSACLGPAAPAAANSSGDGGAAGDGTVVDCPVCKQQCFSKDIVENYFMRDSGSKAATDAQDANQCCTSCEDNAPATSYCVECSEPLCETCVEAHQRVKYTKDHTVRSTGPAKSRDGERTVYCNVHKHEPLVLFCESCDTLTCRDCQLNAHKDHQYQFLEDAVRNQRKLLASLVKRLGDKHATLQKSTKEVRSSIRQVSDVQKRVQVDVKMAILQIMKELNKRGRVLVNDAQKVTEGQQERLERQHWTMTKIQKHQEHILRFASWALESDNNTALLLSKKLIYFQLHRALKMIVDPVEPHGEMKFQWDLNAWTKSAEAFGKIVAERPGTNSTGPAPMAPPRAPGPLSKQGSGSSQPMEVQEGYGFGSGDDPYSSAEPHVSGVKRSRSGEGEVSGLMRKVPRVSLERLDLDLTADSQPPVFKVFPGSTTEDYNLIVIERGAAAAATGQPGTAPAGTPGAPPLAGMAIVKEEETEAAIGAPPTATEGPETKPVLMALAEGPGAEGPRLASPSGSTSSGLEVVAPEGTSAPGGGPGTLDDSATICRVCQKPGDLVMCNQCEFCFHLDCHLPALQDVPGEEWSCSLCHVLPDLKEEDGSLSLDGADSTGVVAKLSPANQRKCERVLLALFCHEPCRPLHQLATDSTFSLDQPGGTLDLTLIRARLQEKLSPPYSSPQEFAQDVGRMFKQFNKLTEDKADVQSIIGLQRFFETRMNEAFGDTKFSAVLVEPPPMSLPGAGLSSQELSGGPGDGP
UniProt P63104: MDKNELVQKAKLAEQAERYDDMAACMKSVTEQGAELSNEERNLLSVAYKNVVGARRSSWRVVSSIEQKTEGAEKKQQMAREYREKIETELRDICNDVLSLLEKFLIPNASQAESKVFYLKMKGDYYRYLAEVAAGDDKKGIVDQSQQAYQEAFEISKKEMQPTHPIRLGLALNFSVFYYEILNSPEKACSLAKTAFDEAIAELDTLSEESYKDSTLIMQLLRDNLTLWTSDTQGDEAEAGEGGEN

binding: binds
Substance: 14-3-3ζ (from UniProt P63104 1-245)

Reference: article PMC11978164
